# Results from PubChem BioAssay AID328 (DTP/NCI, 2004).
# The list shows only some results of the screen, not a fair sample: it gathers tests that were run many times, whatever their T/C, doses with no T/C, and many T/C values between a quarter and a half above the control. Other doses and runs of a compound stand elsewhere. T/C: endpoint of the treated group in % of that of the vehicle group. Some entries give survivors of the animals treated and no T/C: the source files T/C as zero there, which appears to mark a toxic dose or a test without result, not a measured value. Some doses without a T/C left all or most animals alive at the check, yet need not have been tolerated: the source hardly ever lists a survival T/C far under the control, and the zero likely stands for such cases as well. Counts of survivors are from the toxicity check (mostly the fifth day) where no day follows; animals may have died later. Schedules are NCI's codes, taken here to give the interval after Q, in days (D) or hours (H), and the number of doses after X. Some entries were tested several times; their values stand side by side, smallest first. Some molecules as drawn cover several salts, stereoisomers or complexes of the source; a dose is that of the sample tested. For survival time, the PubChem record calls one and a half times the control and up active, and a quarter to a half above the control has no call in these data; cut-offs in other NCI protocols can differ. Some T/C values are followed by the survivors on the day toxicity was checked, most often the fifth; without a count, all were alive then.
# Test system: BDF1 mice, P388 leukemia ip, median survival T/C
# Test: NCI In Vivo Anticancer Drug Screen. Data for tumor model P388 Leukemia (intraperitoneal) in B6D2F1 (BDF1) mice
# Details: T/C endpoint: median survival time, higher T/C = longer survival
# How it was run: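 Each value expresses how treatment altered survival: treated-mouse outcome over vehicle-mouse outcome, both groups bearing the transplanted tumour.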
# [1] = dose: 50.0 mg/kg/injection, schedule: Q01DX009 (ip), vehicle: saline
structure (smiles),measurement,setting,value
CN(C)/N=N/c1nc[nH]c1C(N)=O,survivor count,"dose: 44.0 mg/kg/injection, schedule: Q01DX009 (ip), vehicle: carboxymethylcellulose (CMC)",10 of 10
same,T/C,"dose: 50.0 mg/kg/injection, schedule: Q01DX010 (ip), vehicle: saline",129 % of control
same,survivor count,"dose: 67.0 mg/kg/injection, schedule: Q01DX009 (ip), vehicle: carboxymethylcellulose (CMC)",10 of 10
same,survivor count,"dose: 100.0 mg/kg/injection, schedule: Q01DX009 (ip), vehicle: carboxymethylcellulose (CMC)",10 of 10
same,T/C,"dose: 200.0 mg/kg/injection, schedule: Q01DX010 (ip), vehicle: saline",130 and 133 % of control
same,survivor count,"dose: 400.0 mg/kg/injection, schedule: Q01DX010 (ip), vehicle: saline",0 of 6
same,T/C,"dose: 418.0 mg/kg/injection, schedule: Q01DX001 (ip), vehicle: carboxymethylcellulose (CMC)",127 % of control
same,T/C,"dose: 625.0 mg/kg/injection, schedule: Q01DX001 (ip), vehicle: carboxymethylcellulose (CMC), evaluated on day 5",147 % of control
same,T/C,"dose: 625.0 mg/kg/injection, schedule: Q01DX001 (ip), vehicle: carboxymethylcellulose (CMC), evaluated on day 45",148 % of control
same,T/C,"dose: 700.0 mg/kg/injection, schedule: Q01DX001 (ip), vehicle: carboxymethylcellulose (CMC)",142 % of control
same,survivor count,"dose: 800.0 mg/kg/injection, schedule: Q01DX009 (ip), vehicle: Klucel (hydroxypropylcellulose) (HPC)",1 of 10
same,survivor count,"dose: 935.0 mg/kg/injection, schedule: Q01DX001 (ip), vehicle: carboxymethylcellulose (CMC)",2 of 6
C[C@H]1C(=O)O[C@@H]2CCN3CC=C(COC(=O)[C@](C)(O)[C@@]1(C)O)[C@H]23,T/C,"dose: 25.0 mg/kg/injection, schedule: Q01DX009 (ip), vehicle: saline",133 % of control
same,T/C,[1],127 % of control
O=C1C(Cl)=C(N2CC2)C(=O)C(Cl)=C1N1CC1,T/C,"dose: 1.25 mg/kg/injection, schedule: Q01DX009 (ip), vehicle: Klucel (hydroxypropylcellulose) (HPC)",125 % of control
same,survivor count,"dose: 20.0 mg/kg/injection, schedule: Q01DX009 (ip), vehicle: Klucel (hydroxypropylcellulose) (HPC)",1 of 6
same,survivor count,"dose: 20.0 mg/kg/injection, schedule: Q01DX009 (ip), vehicle: saline",4 of 6 and 6 of 6
CCCc1cc(CCC)n2nc(N)nc2n1,survivor count,"dose: 200.0 mg/kg/injection, schedule: Q01DX009 (ip), vehicle: saline with Tween-80",3 of 6
CC[n+]1c(-c2ccccc2)c2cc(N)ccc2c2ccc(N)cc21,T/C,"dose: 0.78 mg/kg/injection, schedule: Q01DX009 (ip), vehicle: saline",133 % of control
same,T/C,"dose: 1.56 mg/kg/injection, schedule: Q01DX009 (ip), vehicle: water",140 % of control
same,T/C,"dose: 2.5 mg/kg/injection, schedule: Q01DX010 (ip), vehicle: saline",133 and 140 % of control
same,T/C,"dose: 3.13 mg/kg/injection, schedule: Q01DX009 (ip), vehicle: water",143 % of control
same,T/C,"dose: 5.0 mg/kg/injection, schedule: Q01DX010 (ip), vehicle: saline",133 % of control
same,survivor count,"dose: 18.0 mg/kg/injection, schedule: Q01DX009 (ip), vehicle: saline",3 of 6
same,survivor count,"dose: 25.0 mg/kg/injection, schedule: Q01DX009 (ip), vehicle: saline with Tween-80",5 of 6
same,survivor count,"dose: 25.0 mg/kg/injection, schedule: Q01DX009 (ip), vehicle: water",5 of 5
same,survivor count,"dose: 50.0 mg/kg/injection, schedule: Q01DX009 (ip), vehicle: saline with Tween-80",4 of 6
same,survivor count,[1],5 of 6
same,survivor count,"dose: 100.0 mg/kg/injection, schedule: Q01DX009 (ip), vehicle: saline",2 of 6
same,survivor count,"dose: 200.0 mg/kg/injection, schedule: Q01DX009 (ip), vehicle: saline",0 of 6
C/C(CCC(=O)O)=N/O,survivor count,"dose: 400.0 mg/kg/injection, schedule: Q01DX009 (ip), vehicle: saline",5 of 6
C[n+]1ccc(Nc2ccc(NC(=O)c3ccc(Nc4cc[n+](C)c5ccc([N+](=O)[O-])cc45)cc3[N+](=O)[O-])cc2)cc1,T/C,"dose: 100.0 mg/kg/injection, schedule: Q04DX003 (ip), vehicle: saline, evaluated on day 20",145 % of control [5 of 6 alive]
same,T/C,"dose: 100.0 mg/kg/injection, schedule: Q04DX003 (ip), vehicle: saline, evaluated on day 32",138 % of control
CC1CCOS(=O)O1 (configuration not stated),survivor count,"dose: 80.0 mg/kg/injection, schedule: Q01DX010 (ip), vehicle: saline",6 of 6
CCOC(=O)CN1C=C(C(=O)c2cc3ccccc3n2S(=O)(=O)c2ccccc2)CCC1,T/C,"dose: 1.0 mg/kg/injection, schedule: Q01DX009 (ip), vehicle: saline",133 % of control [5 of 6 alive]
O=C1OC(=O)C2C1C1C3C=CC3C1C21C=C1 (configuration not stated),T/C,"dose: 200.0 mg/kg/injection, schedule: Q01DX001 (ip), vehicle: saline",129 % of control [5 of 6 alive]
Cc1ncc([N+](=O)[O-])n1CCN=[N+]=[N-],T/C,"dose: 400.0 mg/kg/injection, schedule: Q04DX003 (ip), vehicle: saline with Tween-80",132 % of control
